Measurements as given in US20230044739A1.
These are yes or no findings as the source states them, for the method shown. Some results given as binding are weak or reduced against the parent protein; the word gives no strength.

T1: recombinantly produced human IL-36R (ECD-extracellular domain) (human) (UniProt Q9HB29)
T1 sequence (looked up): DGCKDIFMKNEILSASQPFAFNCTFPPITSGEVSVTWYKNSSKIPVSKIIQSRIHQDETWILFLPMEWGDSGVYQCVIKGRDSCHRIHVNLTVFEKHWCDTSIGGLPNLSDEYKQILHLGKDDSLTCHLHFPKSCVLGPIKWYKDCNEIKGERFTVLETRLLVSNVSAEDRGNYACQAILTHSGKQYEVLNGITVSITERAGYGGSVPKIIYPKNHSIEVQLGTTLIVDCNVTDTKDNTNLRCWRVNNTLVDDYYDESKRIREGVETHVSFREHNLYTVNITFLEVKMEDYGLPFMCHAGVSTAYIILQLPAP

B1: mouse anti-human IL-36R antibody 172C8 (antibody, V domains shown)
VH: EVQLQQSGPELVKPGASVKLSCKASGYTFTDNYMNWVRQSHGKSLEWIGRVNPSNGDTKYNQNFKGKATLTVDKSLSTAYMQLNGLTSEDSAVYYCGRTKNFYSSYSYDDAMDYWGQGTSVTVSS
VL: DIQMTQSPASQSASLGESVTFTCLASQTIGTWLAWYQQRPGKSPQLLIYAATSLADGVPSRFSGSGSGTQFSFNIRSLQAEDFASYYCQQVYTTPLTFGGGTKLEIK
B2: mouse anti-human IL-36R antibody 67E7 (antibody, V domains shown)
VH: EVQLQQSGAEFVRPGASVKFSCTASGFNIKDDYIHWVRQRPEQGLEWVGRIDPANGNTKYAPKFQDKATITADTSSNTAYLQLSSLTSEDTAVYYCAKSFPNNYYSYDDAFAYWGQGTLVTVSA
VL: DIQMTQSPASQSASLGESVTFTCLASQTIGTWLGWYQQKPGKSPQLLIYRSTTLADGVPSRFSGSGSGTKFSFKISSLQAADFASYYCQQLYSAPYTFGGGTKLEIR

Assays:
[1] = molecular target: T1, recombinantly produced human IL-36R (ECD-extracellular domain) (human); experiment: hybridoma fusion product screen
[2] = molecular target: T1, recombinantly produced human IL-36R (ECD-extracellular domain) (human); experiment: Fortebio Octet; binding also analysed in 50% human serum

Binder | binding [1] | binding [2]
B1 | binds | binds
B2 | binds | binds
